Measured values published in article PMC2672601.
No constants are given. Whether binding was seen depends on the method and setting. Binding seen in cells or lysates may run through a third protein. Binding calls can cover weak binding; strength is not graded here. Sequences can lack the tags named with a protein.

Molecular target: T1, VGluRδ2 (fusion between Venus and the glutamate receptor delta2, GluRδ2) (UniProt Q61625)
T1 sequence: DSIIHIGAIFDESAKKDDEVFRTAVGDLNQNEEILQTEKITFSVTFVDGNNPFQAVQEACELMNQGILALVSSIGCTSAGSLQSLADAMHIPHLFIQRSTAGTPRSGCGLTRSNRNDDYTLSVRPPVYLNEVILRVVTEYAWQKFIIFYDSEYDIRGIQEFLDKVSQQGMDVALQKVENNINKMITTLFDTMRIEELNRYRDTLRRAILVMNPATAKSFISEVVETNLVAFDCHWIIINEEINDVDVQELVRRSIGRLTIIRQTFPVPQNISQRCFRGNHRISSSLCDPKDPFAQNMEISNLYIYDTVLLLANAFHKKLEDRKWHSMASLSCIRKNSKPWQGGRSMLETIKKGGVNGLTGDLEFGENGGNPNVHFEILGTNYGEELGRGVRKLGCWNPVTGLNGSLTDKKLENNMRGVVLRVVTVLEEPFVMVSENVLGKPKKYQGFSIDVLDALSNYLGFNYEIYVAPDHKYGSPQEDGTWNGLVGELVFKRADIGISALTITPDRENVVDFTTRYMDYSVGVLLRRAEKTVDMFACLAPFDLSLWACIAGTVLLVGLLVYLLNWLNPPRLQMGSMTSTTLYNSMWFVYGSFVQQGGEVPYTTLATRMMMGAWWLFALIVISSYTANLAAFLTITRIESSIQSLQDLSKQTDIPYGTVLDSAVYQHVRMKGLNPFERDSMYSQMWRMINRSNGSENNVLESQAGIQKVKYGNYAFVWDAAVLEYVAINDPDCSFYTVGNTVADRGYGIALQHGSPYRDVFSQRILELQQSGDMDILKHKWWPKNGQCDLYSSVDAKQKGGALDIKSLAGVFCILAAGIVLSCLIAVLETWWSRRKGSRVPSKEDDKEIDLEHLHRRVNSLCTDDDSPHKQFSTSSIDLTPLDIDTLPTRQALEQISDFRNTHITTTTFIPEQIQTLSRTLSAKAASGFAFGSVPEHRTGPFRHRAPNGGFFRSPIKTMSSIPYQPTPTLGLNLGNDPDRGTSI
Experiment: co-IP; anti-GFP antibody on Dynabeads M-270 epoxy beads; pooled excitatory synaptic gel-filtration fractions of a crude synaptosome fraction (P2) solubilised in 0.5% Triton X-100, from ten cerebella of Pcp2/VGluRδ2 or Pcp2/eGFP mice; 1 h at 4 °C; wash with 300 mM NaCl, 0.5% Triton X-100; western blot of the affinity-purified samples

binding: binds
Substance: Homer (mouse (endogenous in cerebellum))
